Measurements reported in PubChem BioAssay AID1159578 (Peter MacCallum Cancer Centre, 2015)
In all, the deposit lists about 18,000 reagents; below is a part drawn at random. About 1,030 of all reagents (5.7%) count as active. 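Inactive calls also include pools with fewer than 3300 nuclei, whose migration was not assessed.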 Raw values vary from plate to plate and are shown uncorrected. Not all columns of the deposit are shown.

Screen: 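Genome-wide hunt for genes controlling movement of lymphatic endothelial cells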 (primary screen)
System: human lymphatic endothelial cells
Knock-down reagent: siRNA pool against human genes, 40 nM
Time to read-out: 48 h after transfection
Read-out: 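High-content imaging of dye-stained cells in a scratch assay measures filled wound area and nuclei per well; duplicate means given as ratio to mock and robust z-score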
Direction: migration robust z-score: higher = faster migration into the scratch; nuclei per well: higher = more cells in the well
Call rule: 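Migration changed when robust z exceeds 2 or falls below -2 and mean nuclei number is at least 3300; otherwise not called changed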
Calls: active = migration changed; inactive = no migration change, or too few cells

| gene symbol | PubChem SID | migration robust z-score | migration class with cell-count check | nuclei per well, duplicate mean | call |
| --- | --- | --- | --- | --- | --- |
| PCNA | SID255351447 | -1.9 | migration z between -2 and 2; enough cells | 5124 | inactive |
| KRT36 | SID255353740 | 0.13 | migration z between -2 and 2; enough cells | 4603 | inactive |
| MINDY3 | SID255360625 | 0.38 | migration z between -2 and 2; enough cells | 7092 | inactive |
| OR4D9 | SID255365631 | 1.58 | migration z between -2 and 2; enough cells | 5206 | inactive |
| MRPL12 | SID255352201 | -0.08 | migration z between -2 and 2; enough cells | 6337 | inactive |
| FCRL1 | SID255362304 | -0.7 | migration z between -2 and 2; enough cells | 6521 | inactive |
| BOLL | SID255360138 | 0.47 | migration z between -2 and 2; enough cells | 5610 | inactive |
| DNAJC16 | SID255356172 | 1.17 | migration z between -2 and 2; enough cells | 5919 | inactive |
| RGS11 | SID255353809 | 1.08 | migration z between -2 and 2; enough cells | 6244 | inactive |
| KCNU1 | SID255363640 | -1.22 | migration z between -2 and 2; enough cells | 6068 | inactive |
| IDI1 | SID255350389 | -0.09 | migration z between -2 and 2; enough cells | 7400 | inactive |
| PZP | SID255351994 | -0.85 | migration z between -2 and 2; enough cells | 5102 | inactive |
| AMY2B | SID255348303 | 0.18 | migration z between -2 and 2; enough cells | 5708 | inactive |
| POLR3G | SID255355233 | -0.08 | migration z between -2 and 2; enough cells | 4864 | inactive |
| EIF3K | SID255357037 | -1.14 | migration z between -2 and 2; enough cells | 3726 | inactive |
| SPRR1A | SID255352603 | 0.52 | migration z between -2 and 2; enough cells | 4790 | inactive |
| CTSH | SID255349173 | -0.52 | migration z between -2 and 2; enough cells | 5885 | inactive |
| NPY5R | SID255351297 | -0.21 | migration z between -2 and 2; enough cells | 5854 | inactive |
| FRMD4A | SID255358780 | -0.65 | migration z between -2 and 2; enough cells | 6132 | inactive |
| BTN1A1 | SID255348593 | 1.29 | migration z between -2 and 2; enough cells | 6156 | inactive |
| UCN2 | SID255361796 | 0.5 | migration z between -2 and 2; enough cells | 6490 | inactive |
| GPR158 | SID255359433 | 0.08 | migration z between -2 and 2; enough cells | 6184 | inactive |
| VPS13B | SID255363630 | 0.05 | migration z between -2 and 2; enough cells | 6148 | inactive |
| OR8A1 | SID255365640 | -0.2 | migration z between -2 and 2; enough cells | 6502 | inactive |
| KIFC2 | SID255361877 | 0.73 | migration z between -2 and 2; enough cells | 5117 | inactive |
| NDUFB5 | SID255351173 | -0.1 | migration z between -2 and 2; enough cells | 4535 | inactive |
| TMED2 | SID255355480 | 1.69 | migration z between -2 and 2; enough cells | 7010 | inactive |
| UCN3 | SID255362215 | -0.82 | migration z between -2 and 2; enough cells | 5502 | inactive |
| FECH | SID255349658 | -0.96 | migration z between -2 and 2; enough cells | 4994 | inactive |
| FAM43A | SID255362902 | 0.55 | migration z between -2 and 2; enough cells | 6318 | inactive |
| RBP7 | SID255362369 | 0.46 | migration z between -2 and 2; enough cells | 5596 | inactive |
| ZNF146 | SID255353246 | 0.24 | migration z between -2 and 2; enough cells | 6431 | inactive |
| CHMP7 | SID255361954 | -1.06 | migration z between -2 and 2; enough cells | 5854 | inactive |
| SYCP1 | SID255352712 | -2.52 | migration z below -2; enough cells | 5402 | active |
| ZP3 | SID255353295 | -0.76 | migration z between -2 and 2; enough cells | 6228 | inactive |
| KRT10-AS1 | SID255363321 | -2.34 | migration z below -2; enough cells | 4049 | active |
| ASGR2 | SID255348421 | -1.01 | migration z between -2 and 2; enough cells | 5458 | inactive |
| ZNF567 | SID255363775 | 0.41 | migration z between -2 and 2; enough cells | 5568 | inactive |
| ZFP2 | SID255360650 | 0.04 | migration z between -2 and 2; enough cells | 6906 | inactive |
| HES3 | SID255365672 | 0.64 | migration z between -2 and 2; enough cells | 6002 | inactive |
| TAT | SID255352751 | -0.88 | migration z between -2 and 2; enough cells | 5389 | inactive |
| OPA1 | SID255351350 | -0.88 | migration z between -2 and 2; enough cells | 4491 | inactive |
| DEFB131A | SID255366096 | -0.15 | migration z between -2 and 2; enough cells | 6732 | inactive |
| ARHGEF37 | SID255365557 | -0.32 | migration z between -2 and 2; enough cells | 5870 | inactive |
| RAD51 | SID255352023 | -2.96 | under 3300 nuclei; migration not judged | 2503 | inactive |
| LAMTOR2 | SID255357074 | -0.27 | migration z between -2 and 2; enough cells | 5515 | inactive |
| POLG2 | SID255355697 | 0.75 | migration z between -2 and 2; enough cells | 5074 | inactive |
| TRAPPC3 | SID255356915 | -0.3 | migration z between -2 and 2; enough cells | 5357 | inactive |
| EIF2AK3 | SID255354286 | -0.18 | migration z between -2 and 2; enough cells | 6652 | inactive |
| ALKBH4 | SID255358162 | 0.68 | migration z between -2 and 2; enough cells | 7198 | inactive |
| CCNT1 | SID255348742 | -0.13 | migration z between -2 and 2; enough cells | 4578 | inactive |
| UQCRFS1 | SID255353077 | 0.8 | migration z between -2 and 2; enough cells | 7106 | inactive |
| IFNA7 | SID255350405 | -1.02 | migration z between -2 and 2; enough cells | 5272 | inactive |
| INSR | SID255350515 | -0.36 | migration z between -2 and 2; enough cells | 5986 | inactive |
| OR2T33 | SID255365687 | -1.82 | migration z between -2 and 2; enough cells | 3912 | inactive |
| BAGE4 | SID255361663 | 0.42 | migration z between -2 and 2; enough cells | 5800 | inactive |
| SLC25A12 | SID255353672 | -0.25 | migration z between -2 and 2; enough cells | 6434 | inactive |

Targets above whose gene name begins with R or r:
| gene symbol | PubChem SID | migration robust z-score | migration class with cell-count check | nuclei per well, duplicate mean | call |
| --- | --- | --- | --- | --- | --- |
| RGS11 | SID255353809 | 1.08 | migration z between -2 and 2; enough cells | 6244 | inactive |
| RBP7 | SID255362369 | 0.46 | migration z between -2 and 2; enough cells | 5596 | inactive |
| RAD51 | SID255352023 | -2.96 | under 3300 nuclei; migration not judged | 2503 | inactive |
